# Tested on: LNCaP95 cells
# Assay: Antiproliferative assay (resazurin, 72 h) in LNCaP95 cells
# Type: cell-based
# Conditions: LNCaP-95; antiproliferation, LNCaP95, 72 h, mean of three independent experiments
# Method: The synthesized compounds were first screened in 22Rv1, an enzalutamide-resistant cell line at concentrations of 10 and 1.0 μM, respectively.
# 22Rv1 cells were obtained from ATCC. LNCaP95 cells were provided by Dr. Yan Dong’s laboratory (Tulane University School of Medicine). LNCaP95 cells were maintained in an RPMI1640 medium with charcoal-stripped serum (CSS). 22Rv1 cells were maintained in an RPMI1640 medium with 10% FBS. Cells were seeded in 96-well plates (5 × 10^3 cells/well) containing a 50 μL growth medium for 24 h. After medium removal, a 100 μL fresh medium containing individual compounds at different concentrations was added to each well and incubated at 37 °C for 72 h. Then, 20 μL of resazurin was added for 2 h before recording fluorescence at 560 nm (excitation) and 590 nm (emission) using a Victor microtiter plate fluorometer (Perkin-Elmer, Waltham, MA, USA).
smiles,measurement,value
"CNC(=O)c1ccc(N2C(=S)N(c3ccc(C#N)c(C(F)(F)F)c3)C(=O)C2(C)C)cc1F [Enzalutamide, reference compound]",IC50,> 10000 µM
